# Measured values published in the supplement of paper PMC9744312.
# Structures can show the parent of a compound that is named as a salt. The list shows a part of the results. Single values of this set are uncertain.
# System: Peyronie's disease tunica albuginea primary fibroblasts
# Test: inhibition of TGF-beta1-induced alpha-SMA expression (myofibroblast transformation), relative to TGF-beta1-only and untreated controls; higher = stronger inhibition of myofibroblast transformation
# Settings: 10 µM; TGF-beta1 10 ng/mL; 72 h
row,SMILES,inhibition of TGF-beta1-induced alpha-SMA expression [%]
1,NC[C@H]1CC[C@H](C(=O)O)CC1 [Tranexamic Acid],23.3
2,Cc1ccc(O)c([C@H](CCN(C(C)C)C(C)C)c2ccccc2)c1 [Tolterodine tartrate],10.3
3,Nc1nc(=O)c2c([nH]1)NCC(CNc1ccc(C(=O)N[C@@H](CCC(=O)O)C(=O)O)cc1)N2C=O (stereo partly drawn) [Calcium folinate],29.3
4,Nc1nc(=O)c2c([nH]1)NCC(CNc1ccc(C(=O)N[C@@H](CCC(=O)O)C(=O)O)cc1)N2C=O (stereo partly drawn) [Leucovorin Calcium Pentahydrate],-13.9
5,Cc1c(O)cccc1C(=O)N[C@@H](CSc1ccccc1)[C@H](O)CN1C[C@H]2CCCC[C@H]2C[C@H]1C(=O)NC(C)(C)C [Nelfinavir Mesylate],42.5
6,CN(C)CCC(c1ccccc1)c1ccccn1 (stereo not drawn) [Pheniramine Maleate],-11.9
7,CCOc1ccc(Cc2cc([C@@H]3O[C@H](CO)[C@@H](O)[C@H](O)[C@H]3O)ccc2Cl)cc1 [Dapagliflozin propanediol monohydrate],7.07
8,CCOc1ccc(Cc2cc([C@@H]3O[C@H](CO)[C@@H](O)[C@H](O)[C@H]3O)ccc2Cl)cc1 [Dapagliflozin],30.9
9,CN(C)CCN1C(=O)c2cccc3cc(N)cc(c23)C1=O [Amonafide],24.3
10,O[C@@H]1CO[C@H]2[C@@H]1OC[C@@H]2O [Isosorbide],-56.1
11,CC1=C(C(=O)OCCN(Cc2ccccc2)c2ccccc2)C(c2cccc([N+](=O)[O-])c2)C(P2(=O)OCC(C)(C)CO2)=C(C)N1 (stereo not drawn) [Efonidipine],21.7
12,CCCNS(=O)(=O)Nc1ncnc(OCCOc2ncc(Br)cn2)c1-c1ccc(Br)cc1 [Macitentan],-17.7
13,CCOc1nc2cccc(C(=O)OC(C)OC(=O)OC3CCCCC3)c2n1Cc1ccc(-c2ccccc2-c2nn[nH]n2)cc1 (stereo not drawn) [Candesartan Cilexetil],16.3
14,Nc1ccc(S(N)(=O)=O)cc1 [Sulfanilamide],21.8
15,CCN1CCC[C@H]1CNC(=O)c1cc(S(N)(=O)=O)ccc1OC [Levosulpiride],16.4
16,NCCNc1ccc(NCCN)c2c1C(=O)c1ccncc1C2=O [Pixantrone Maleate],92.3
17,O=c1[nH]c(=O)n([C@H]2C[C@H](O)[C@@H](CO)O2)cc1/C=C/Br [Brivudine],16.2
18,CCC(C)(C)c1ccc(CC(C)CN2C[C@@H](C)O[C@@H](C)C2)cc1 (stereo partly drawn) [Amorolfine HCl],13.7
19,CCOC(=O)c1ccc(C#Cc2ccc3c(c2)C(C)(C)CCS3)nc1 [Tazarotene],8.3
20,"CC(C)(C)C#Cc1cc(N(C(=O)[C@H]2CC[C@H](C)CC2)[C@H]2CC[C@H](O)CC2)c(C(=O)O)s1 [Lomibuvir (VX-222, VCH-222)]",10.3
21,CC[C@]12CCCN3CCc4c(n(c5ccccc45)[C@@](O)(C(=O)OC)C1)[C@@H]32 [Vincamine],26.5
22,S=c1nc[nH]c2nc[nH]c12 [6-Mercaptopurine (6-MP) Monohydrate],10.2
23,CCCCCCCCCCCCCCCC[N+](C)(C)C [Cetrimonium Bromide (CTAB)],> 100
24,O=C(O)CCc1nc2ccccc2[nH]1 [Procodazole],12
25,CCCc1nc(C(C)(C)O)c(C(=O)OCc2oc(=O)oc2C)n1Cc1ccc(-c2ccccc2-c2nnn[nH]2)cc1 [Olmesartan Medoxomil],-17.9
26,Cn1c(=O)c2c(ncn2CC(O)CO)n(C)c1=O (stereo not drawn) [Dyphylline],-6.45

row,SMILES,inhibition of TGF-beta1-induced alpha-SMA expression [%]
1,Nc1nccs1 [Aminothiazole],14.9
2,CC(C)C[C@H](N)C(=O)O [L-Leucine],0.755
3,NC(=O)c1cccnc1 [Nicotinamide (Vitamin B3)],10.5
4,CC(C)(Oc1ccc(C2CC2(Cl)Cl)cc1)C(=O)O (stereo not drawn) [Ciprofibrate],18.7
5,NC(=O)[C@@H](CCC(F)(F)F)N(Cc1ccc(-c2ncon2)cc1F)S(=O)(=O)c1ccc(Cl)cc1,55
6,CC1=C(C(=O)O)N2C(=O)[C@@H](NC(=O)[C@H](N)c3ccc(O)cc3)[C@H]2SC1 [Cefadroxil hydrate],8.43
7,C=CCN1CCCC1CNC(=O)c1cc2nn[nH]c2cc1OC (stereo not drawn) [Alizapride HCl],-17
8,CCOC(=O)C1=C(C)NC(C)=C(C(=O)OC)C1c1cccc([N+](=O)[O-])c1 (stereo not drawn) [Nitrendipine],39.6
9,CCn1cc(C(=O)O)c(=O)c2cc(F)c(N3CCNCC3)cc21 [Norfloxacin],11.8
10,O=C(c1ccc(OCCN2CCCCC2)cc1)c1c(-c2ccc(O)cc2)sc2cc(O)ccc12 [Raloxifene HCl],8.26
11,[OH][Al]([OH])[OH] [Aluminium hydroxide],6.45
12,CC(CN1c2ccccc2Sc2ccccc21)N(C)C (stereo not drawn) [Promethazine HCl],30.8
13,CNC(=O)c1ccccc1Sc1ccc2c(/C=C/c3ccccn3)n[nH]c2c1 [Axitinib],-165
14,NS(=O)(=O)c1cc2c(cc1C(F)(F)F)NC(Cc1ccccc1)NS2(=O)=O (stereo not drawn) [Bendroflumethiazide],15.8
15,S=P(N1CC1)(N1CC1)N1CC1 [Thiotepa],-8.84
16,CCN1CCCC1CNC(=O)c1cc(S(=O)(=O)CC)c(N)cc1OC (stereo not drawn) [Amisulpride],45.1
17,CC(C)(CO)C(O)C(=O)NCCCO (racemic) [DL-Panthenol],15.1
18,Nc1nc(N)nc(-c2cc(Cl)ccc2Cl)n1 [Irsogladine],7.66
19,CN1CCN(c2ccc(C(=O)Nc3n[nH]c4ccc(Cc5cc(F)cc(F)c5)cc34)c(NC3CCOCC3)c2)CC1 [Entrectinib (RXDX-101)],> 100
20,CC(C)[C@H]1CC[C@H](C(=O)N[C@H](Cc2ccccc2)C(=O)O)CC1 [Nateglinide],13.2
21,COc1ccc(-n2nc(C(N)=O)c3c2C(=O)N(c2ccc(N4CCCCC4=O)cc2)CC3)cc1 [Apixaban],9.65
22,COc1ccccc1OCCNCC(O)COc1cccc2[nH]c3ccccc3c12 (stereo not drawn) [Carvedilol],20.6
23,COc1ccccc1OCCNCC(O)COc1cccc2[nH]c3ccccc3c12 (stereo not drawn) [Carvedilol Phosphate],68.9
24,CC(C)c1nc(CN(C)C(=O)N[C@H](C(=O)N[C@@H](Cc2ccccc2)C[C@H](O)[C@H](Cc2ccccc2)NC(=O)OCc2cncs2)C(C)C)cs1 [Ritonavir],-14.9
25,CC1CCc2cc(F)cc3c(=O)c(C(=O)O)cn1c23 (stereo not drawn) [Flumequine],13.4
26,C[C@@H](O)[C@H]1C(=O)N2C(C(=O)OCOC(=O)C(C)(C)C)=C(SC3CN(C4=NCCS4)C3)[C@H](C)[C@H]12 [Tebipenem Pivoxil],35.6

row,SMILES,inhibition of TGF-beta1-induced alpha-SMA expression [%]
1,C1CNCCNCCNCCN1 [Cyclen],6.6
2,CCCCOc1ccc(OCCCN2CCOCC2)cc1 [Pramoxine HCl],54.7
3,COC(=O)Nc1nc2cc(C(=O)c3ccc(F)cc3)ccc2[nH]1 [Flubendazole],78.8
4,CC(=O)O[C@H]1Cc2ccccc2N(C(N)=O)c2ccccc21 [Eslicarbazepine Acetate],-15.4
5,CCOC(=O)c1ccc(O)cc1 [Ethylparaben],-34.5
6,O=C(O[C@@H]1C[C@@H]2C[C@H]3C[C@H](C1)N2CC3=O)c1c[nH]c2ccccc12 [Dolasetron],1.22
7,COc1ccc2cc1Oc1ccc(cc1)C[C@H]1c3c(cc4c(c3Oc3cc5c(cc3OC)CCN(C)[C@@H]5C2)OCO4)CCN1C [Cepharanthine],34.9
8,CC(C)(C)NCC(O)c1ccc(O)c(CO)c1 (stereo not drawn) [Salbutamol],4.41
9,CC(C)(C)NCC(O)c1ccc(O)c(CO)c1 (stereo not drawn) [Salbutamol Sulfate],-8.52
10,O=C([O-])C(O)[C@H](O)[C@@H](O)[C@H](O)[C@H](O)CO.O=C([O-])C(O)[C@H](O)[C@@H](O)[C@H](O)[C@H](O)CO.[Ca+2] (stereo partly drawn) [Calcium Gluceptate],3.42
11,Cc1c(OCC(F)(F)F)ccnc1C[S+]([O-])c1nc2ccccc2[nH]1 (stereo not drawn) [Lansoprazole],6.32
12,Cc1nccn1CCC(C(N)=O)(c1ccccc1)c1ccccc1 [Imidafenacin],34.6
13,"CC[C@H](Nc1ncnc2[nH]cnc12)c1nc2cccc(F)c2c(=O)n1-c1ccccc1 [Idelalisib (CAL-101, GS-1101)]",-27.2
14,CN(C)[C@@H](CCOc1cccc2ccccc12)c1ccccc1 [Dapoxetine HCl],31.5
15,CCCC(CCC)C(=O)O [Valproic acid sodium salt (Sodium valproate)],33.2
16,CCCC(CCC)C(=O)O [Valproic acid],-18.7
17,CCCC(CCC)C(=O)O [Divalproex Sodium],36.3
18,Cc1onc(-c2ccccc2)c1C(=O)N[C@@H]1C(=O)N2[C@@H]1SC(C)(C)[C@@H]2C(=O)O [Oxacillin sodium monohydrate],-3.86
19,OCC(O)CN1CCN(c2ccccc2)CC1 (stereo not drawn) [Dropropizine],-6.37
20,COc1cc(N)c(Cl)cc1C(=O)NC1CCN(CCCOc2ccc(F)cc2)CC1OC (stereo not drawn) [Cisapride hydrate],-22.9
21,COc1cc(N)c(Cl)cc1C(=O)NC1CCN(CCCOc2ccc(F)cc2)CC1OC (stereo not drawn) [Cisapride],8.03
22,CN(C)CCC(c1ccc(Cl)cc1)c1ccccn1 (stereo not drawn) [Chlorpheniramine Maleate],18.4
23,CCC(=O)NCC[C@@H]1CCc2ccc3c(c21)CCO3 [Ramelteon],2.13
24,COC1=CC(=O)C[C@@H](C)[C@]12Oc1c(Cl)c(OC)cc(OC)c1C2=O [Griseofulvin],36.8
25,O[C@@H](COc1cccc2ncccc12)CN1CCN(C2c3ccccc3[C@@H]3[C@H](c4ccccc42)C3(F)F)CC1 (stereo partly drawn),-3.23
26,NS(=O)(=O)NCCNc1nonc1/C(=N/O)Nc1ccc(F)c(Br)c1,17.9

# Looked up above:
# Value of CC(C)(Oc1ccc(C2CC2(Cl)Cl)cc1)C(=O)O (stereo not drawn) [Ciprofibrate] under inhibition of TGF-beta1-induced alpha-SMA expression [%]: 18.7
# Value of CC1CCc2cc(F)cc3c(=O)c(C(=O)O)cn1c23 (stereo not drawn) [Flumequine] under inhibition of TGF-beta1-induced alpha-SMA expression [%]: 13.4
# Value of CC(C)C[C@H](N)C(=O)O [L-Leucine] under inhibition of TGF-beta1-induced alpha-SMA expression [%]: 0.755
